Experimental findings from the supplement of paper PMC8256030 are described below.

Several values for one entry are separate records, joined by “and”; a condition that tells them apart may be missing. Identical values can stand only once. Counter-ions that a name gives are not always drawn. The list shows a part of the results. This data set is noisy: repeats of one test often differ as much as different tests do.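 HEK293T cells were given each compound shortly before transfection with a reporter in which red mCherry is followed by the SARS-CoV-2 frameshift element and then GFP in the −1 frame, so GFP appears only after frameshifting.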

Assay [1] relates to SARS-CoV-2 -1 PRF reporter mCherry-FSE-GFP(-1). Nature of the assay: mCherry (red) intensity as percent of control; higher = higher upstream reporter expression. The following applies: 10 µM; 24 h; HEK293T.
The test system is the same in assay [2]. Nature of the assay: percent effect, decrease of GFP/mCherry ratio (-1 PRF reporter) relative to controls; higher = stronger frameshift inhibition. The following applies: 10 µM; 24 h; HEK293T.

For `C=C1CCO[C@]2([C@@H](O)[C@@](C)(O)CO)NC(=O)[C@@]1(O)NC2=O` [bicozamycin], the mCherry in assay [1] came out at 93%. The percent effect in assay [2] is -1.06%.
`C[N+]1(C)CCC(OC(=O)C(O)(c2ccccc2)C2CCCC2)C1` (centres undefined): the mCherry in assay [1] was 93.7%. For the same compound, the percent effect in assay [2] is -0.0239%.
Regarding `O=C1NOCC1/N=C/c1ccc(/C=N/C2CONC2=O)cc1` (centres undefined) [terizidone], the mCherry in assay [1] was 97.5%. Besides, the percent effect in assay [2] was -5.63%.
`Cc1ccc(Cl)c(OCC(O)CNC(C)(C)C)c1` (centres undefined) [bupranolol] showed a mCherry in assay [1] of 117%. The percent effect in assay [2] is -4.34%.
Taken in the same sequence, the figures for `C[C@H]1O[C@@H](O[C@H]2[C@@H](O)C[C@H](O[C@H]3[C@@H](O)C[C@H](O[C@H]4CC[C@@]5(C)[C@H](CC[C@@H]6[C@@H]5CC[C@]5(C)[C@@H](C7=CC(=O)OC7)CC[C@]65O)C4)O[C@@H]3C)O[C@@H]2C)C[C@H](O)[C@@H]1O` were 14.9% and -11.2%.
Taken in the same sequence, the figures for `CCOC(=O)O[C@]1(C(=O)COC(=O)CC)CC[C@H]2[C@@H]3CCC4=CC(=O)C=C[C@]4(C)[C@H]3[C@@H](O)C[C@@]21C` [Prednicarbate] were 75.6% and -5.35%.
`Cc1cn([C@H]2C=C[C@@H](CO)O2)c(=O)[nH]c1=O` [stavudine]: in assay [1], the mCherry was 107%. Moreover, in assay [2], the percent effect is -4.01%.
Take `CN1CCN(c2c(F)cc3c(=O)c(C(=O)O)cn4c3c2SCC4)CC1` [rufloxacin]: in assay [1], the mCherry was 118% and 110%. In addition, the percent effect in assay [2] is 0.358% and 4.74%.
As to `C=CCn1c(N)cc(=O)n(CC)c1=O` [Mictine], in assay [1], the mCherry turned out to be 96.8%. In addition, in assay [2], the percent effect is -1.74%.
In turn, `CN1CCN(C2=Nc3ccccc3Cc3ccccc32)CC1` [perlapine] registered a mCherry in assay [1] of 67.9%. In addition, in assay [2], the percent effect is -12.3%.
Taken in the same sequence, the figures for `N=C(N=C(N)N)N1CCOCC1` [Moroxydine·HCl] were 221% and -0.592%.
In the case of `CN=C(N)NCCCC(N)C(=O)O` (centres undefined), the mCherry in assay [1] stood at 104%. Further, the percent effect in assay [2] came out at 2.07%.
In the case of `Cc1ccccc1C(=O)Nc1ccc(C(=O)N2CCCC(O)c3cc(Cl)ccc32)c(C)c1` (centres undefined) [tolvaptan], in assay [1], the mCherry was 114%. The percent effect in assay [2] is -2.57%.
For `FC(F)(F)C(Cl)Br` (centres undefined) [halothane], the mCherry in assay [1] turned out to be 93.7%. The percent effect in assay [2] was -2.18%.
The compound `CCCC1(CC(=O)O)OCCc2c1[nH]c1ccccc21` (centres undefined) [prodolic acid] displayed a mCherry in assay [1] of 86.4%. The percent effect in assay [2] was -12.1%.
For `CCN(CC)CCNC(=O)c1ccc(NC(C)=O)cc1` [acecainide], the mCherry in assay [1] worked out at 95.2%. Moreover, the percent effect in assay [2] is -4.69%.
With `CCCCCCCCCCCC[N+](C)(C)CC(=O)OCC` [laurcetium iodide], the mCherry in assay [1] was 39.7%. In addition, the percent effect in assay [2] was -14.5%.
In turn, `CN1C(C(=O)Nc2ccccn2)=C(O)c2sc(Cl)cc2S1(=O)=O` yielded a mCherry in assay [1] of 112%. Besides, the percent effect in assay [2] was -1.94%.
`CC(=O)[C@@]1(O)CC[C@H]2[C@@H]3C[C@H](C)C4=CC(=O)C=C[C@]4(C)[C@@]3(F)[C@@H](O)C[C@@]21C` [fluorometholone]: in assay [1], the mCherry is 118% and 109%. Moreover, the percent effect in assay [2] is -4.71% and -5.3%.
As for `COc1nc2ccc(Br)cc2cc1[C@@H](c1ccccc1)[C@@](O)(CCN(C)C)c1cccc2ccccc12` [Bedaquiline], in assay [1], the mCherry was determined as 114%. Moreover, the percent effect in assay [2] was found to be 0.439%.
The matching figures for `CC(C)(CO)C(O)C(=O)NCCCO` (centres undefined) [panthenol]: 88.2% and -1.89%.
As for `O=P(O)(O)OC(Cn1cncn1)(Cn1cncn1)c1ccc(F)cc1F` [fosfluconazole], in assay [1], the mCherry turned out to be 104%. In addition, in assay [2], the percent effect is -0.391%.
In the case of `S=C=Nc1ccc(N=C=S)cc1` [bitoscanate], the mCherry in assay [1] worked out at 94.5%. Moreover, in assay [2], the percent effect turned out to be 1.84%.
Taken in the same sequence, the figures for `CCCC1O[C@@H]2C[C@H]3[C@@H]4CCC5=CC(=O)C=C[C@]5(C)[C@H]4[C@@H](O)C[C@]3(C)[C@]2(C(=O)CO)O1` (some centres undefined) were 126% and -10.3%.
Taken in the same sequence, the figures for `NC(N)=O` were 110% and -8.24%.
`COc1ccc(C(=O)c2ccc(C)cc2)c(O)c1` [mexenone] yielded a mCherry in assay [1] of 110%. Moreover, the percent effect in assay [2] was determined as 0.796%.
As to `Cc1c(Cl)cc(C(C)C)c(O)c1Cc1c(C)c(Cl)cc(C(C)C)c1O` [biclotymol], the mCherry in assay [1] was determined as 84.3%. In addition, the percent effect in assay [2] is -9.38%.
Turning to `COc1cccc(N(C)C(=S)Oc2ccc3c(c2)CCCC3)n1` [liranaftate], in assay [1], the mCherry worked out at 98%. Moreover, the percent effect in assay [2] was 4.51%.
Consider `CC(=O)OCC(=O)[C@@]12OC(C)(C)O[C@@H]1C[C@H]1[C@@H]3C[C@H](F)C4=CC(=O)C=C[C@]4(C)[C@@]3(F)[C@@H](O)C[C@@]12C` [fluocinonide], for which the mCherry in assay [1] is 107% and 87.7%. In assay [2], the percent effect was -0.624% and -1.52%.
In turn, `COC(=O)N/N=C/c1c[n+]([O-])c2ccccc2[n+]1[O-]` yielded a mCherry in assay [1] of 112%. For the same compound, the percent effect in assay [2] is -0.873%.
Consider `CCCCCC[C@@H](CCC)C(=O)O` [arundic acid], for which the mCherry in assay [1] amounted to 95.3%. Besides, the percent effect in assay [2] is -0.686%.
In turn, `COc1ccc2cc([C@H](C)CO)ccc2c1` registered a mCherry in assay [1] of 113%. Besides, the percent effect in assay [2] was found to be 0.097%.
In turn, `N[C@@H](Cc1c[nH]cn1)C(=O)O` [L-Histidine] came in with a mCherry in assay [1] of 89.2%. Further, in assay [2], the percent effect was -1.54%.
In turn, `CC(C)=CCC/C(C)=C/CC/C(C)=C/CCC(=O)OC/C=C(\C)CCC=C(C)C` [gefarnate] registered a mCherry in assay [1] of 98.9%. For the same compound, the percent effect in assay [2] was -2.37%.
The matching figures for `N[C@@H](CCC(=O)O)C(=O)N[C@@H](Cc1c[nH]c2ccccc12)C(=O)O` [oglufanide]: 93% and -3.58%.
Regarding `O=C(O)C1(C(=O)O)CCC1.[NH2-].[NH2-].[Pt+2]`, in assay [1], the mCherry was 105% and 95.7%. The percent effect in assay [2] is -0.789% and -6.77%.
Consider `CCn1cc(C(=O)O)c(=O)c2ccc(-c3ccncc3)cc21` [rosoxacin], for which, in assay [1], the mCherry worked out at 97.2%. Further, the percent effect in assay [2] amounted to 0.793%.
